Results as given in PMC13523842.
These are yes or no findings as the source states them, for the method shown. In cells and extracts the contact can be indirect. Binding calls can cover weak binding; strength is not graded here.

Amino acid sequences for entries named in this document (tags omitted). A change or cut given only in a name is not applied to a line headed by its entry.
UniProt Q7KT57: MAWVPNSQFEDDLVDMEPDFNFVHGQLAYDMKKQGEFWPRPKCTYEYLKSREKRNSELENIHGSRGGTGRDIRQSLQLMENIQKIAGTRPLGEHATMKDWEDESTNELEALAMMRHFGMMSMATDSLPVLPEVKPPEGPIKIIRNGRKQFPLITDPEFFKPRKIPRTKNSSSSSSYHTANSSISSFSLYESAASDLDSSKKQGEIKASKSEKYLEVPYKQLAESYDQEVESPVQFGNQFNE

How the values were obtained:
[1] = target: Squash (Squ), endogenous (Drosophila melanogaster (endogenous in ovaries)) (UniProt Q7KT57); assay: co-IP; crosslinking immunoprecipitation: y w ovaries fixed with 0.1% paraformaldehyde, lysate sonicated, endogenous Squ precipitated with anti-Squ antibody and Dynabeads Protein G/A, western blot; also with RNase A (50 ug/mL, 37 C, 30 min) treatment of the lysate; no-antibody negative control
[2] = target: GFP-3xFlag-Squ^4A expressed under the native squ promoter (Drosophila melanogaster); assay: co-IP; co-immunoprecipitation from ovaries expressing Squ^WT or Squ^4A in the spn-E mutant background (no Spn-E)
[3] = target: GFP-3xFlag-Squ^WT expressed under the native squ promoter (Drosophila melanogaster); assay: as above
[4] = target: GFP-3xFlag-Squ^WT expressed under the native squ promoter (Drosophila melanogaster); assay: co-IP; GFP-3xFlag-Squ (WT or 4A, native promoter) precipitated with anti-FLAG antibodies from ovaries lacking endogenous Squ; blot for Spn-E, 3 biological replicates

B1: Ago3, endogenous (protein, UniProt Q7PLK0 1-867)
chain: MSGRGNLLSLFNKNAGNMGKSISSKDHEIDSGLDFNNSESSGERLLSSHNIETDLITTLQHVNISVGRGRARLIDTLKTDDHTSNQFITSESKENITKKTKGPESEAIASENGLFFPDLIYGSKGSSVNIYCNYLKLTTDESKGVFNYEVRFFPPIDSVHLRIKYLNDHKDKLGGTKTFDGNTLYLPILLPNKMTVFISKAEDVELQIRILYKKKEEMRNCTQLYNILFDRVMKVLNYVKFDRKQFDPSRPKIIPLAKLEVWPGYVTAVDEYKGGLMLCCDVSHRILCQKTVLEMLVDLYQQNVEHYQESARKMLVGNIVLTRYNNRTYKINDICFDQNPTCQFEIKTGCTSYVEYYKQYHNINIKDVNQPLIYSIKKSRGIPAERENLQFCLIPELCYLTGLRDEVRSDNKLMREIATFTRVSPNQRQMALNKFYENVSNTPAAQEILNSWGLSLTNNSNKISGRQMDIEQIYFSKISVSAGRSAEFSKHAVTNEMLKVVHLSKWIIIHLRNYRQAATSLLDNMKQACESLGMNISNPTMISLDHDRIDAYIQALRRNITMNTQMVVCICHNRRDDRYAAIKKICCSEIPIPSQVINAKTLQNDLKIRSVVQKIVLQMNCKLGGSLWTVKIPFKNVMICGIDSYHDPSNRGNSVAAFVASINSSYSQWYSKAVVQTKREEIVNGLSASFEIALKMYRKRNGKLPTNIIIYRDGIGDGQLYTCLNYEIPQFEMVCGNRIKISYIVVQKRINTRIFSGSGIHLENPLPGTVVDQHITKSNMYDFFLVSQLVRQGTVTPTHYVVLRDDCNYGPDIIQKLSYKLCFLYYNWAGTVRIPACCMYAHKLAYLIGQSIQRDVAEALSEKLFYL
binding [1]: binds weakly | binding [2]: binds | binding [3]: binds

B2: Spindle-E (Spn-E), endogenous (protein, UniProt Q9VF26 1-1434)
chain: MDQEVMDFFDFSKELKRVAAAPQGYISSDPRLMATKFKSSEVPNRELIGTDYVSKIVAKEKCLLNGTLLNEQPQGKRIRTLDDLDTDDEGEETEIRRDDEYYKKFRFNLNRDKNLSIYAKREEILAAINAHPVVIIKGETGCGKTTQVPQYILDEAYKSGKYCNIVVTQPRRIAAISIANRVCQEREWQQNTVCSFQVGLHRPNSLEDTRLLYCTTGVLLNNLINNKTLTHYTHIVLDEVHERDQNMDFLLIVVRRLLATNSRHVKIILMSATIDAKELSDYFTTTNSIPPVITTNHRRKHSIEKFYRDQLGSIIWNEEDVGHQQVPEINKHGYRAAVKIIVIIDNMERKAAIQSRQSYDEALRYGAVLIFLPGIYEIDTMAENLTCMLENDPNIKVSIVRCFSLMTPENQRDVFNPPPPGFRKIILTTNIAESSITVPDVSYVIDFCLAKVKVTDTASSFSSLRLTWASKANCRQRAGRVGRLRSGRVYRMVNKHFYQREMPEFGIPEMLRLPLQNSVLKAKVLNMGSPVEILALALSPPNLSDIHNTILLLKEVGALYLTVDGIYDPLDGDLTYWGTIMSRLPLDTRQSRLIILGYIFNMLEEAIIIAAGLSTPGLFAHEGGRSQLGDSFWMHYIFSDGSGSDLVAIWRVYLTYLNIVENGHDQESAIRWAKRFHVSLRSLKEIHLLVQELRVRCTHLGLIPFPVNPNQMMDDREKAIMLKVIIAGAFYPNYFTRSKESCADTDRNIYQTISGHDPCRTVYFTNFKPAYMGELYTRRIKELFQEVRIPPENMDVTFQEGSQKVFVTFKQDDWIEGSSKYVPVSGRVQSEVYKAVMMRQNRVERPIHIMNPSAFMSYVQQRGIGDVIEGRWIPPTKPLNVELLALPSVFDKTISGSITCIVNCGKFFFQPQSFEECIRNMSEIFNAPQQLRNYVTNASAIAKGMMVLAKRDSYFQRATVIRPENQSNRQPMFYVRFIDYGNCTLLPMQLMRLMPRELTEQYGDLPPRVFECRLAMVQPSSVVSGNNRWSTAANDMLKTVAQCGLIDIEVYSLFNNVAAVLIHMRDGIINDKLVELMLCRRSDEDYMSRKDHDFRLRRQESARNLSTAQRQQINEEYLRSCQLPQDHDLPPPPLEKCKTVVMLKGPNSPLECTMRSITRVGLSKRVNIDHLSVNALLLDADPQDHHDHLIVAHEIAESRNGQTLTARGTTLMPNVQGFGALMVMLFSPTMQLKCNKEGTSYVSVLGGLGCDPDTNEPYFAEHDVLINLDVNILEDDVILINQIRYYIDSVFFNFKEENNPAVSVNERVSIYTQLRSLINRLLCKDRRYIERNMSNADFEWETNPELPLPNEPFGKRAIFPMHSLTELQEEDTGRLVQLRENCSMLHKWRNFEGTLPHMTCKLCNQLLESVPQLRLHLLTILHRDREKQIDYCNQ
binding [4]: binds
